Results from article PMC3146532.

Amino acid sequences for entries named in this document (tags omitted). A change or cut given only in a name is not applied to a line headed by its entry.
UniProt Q9HAW4: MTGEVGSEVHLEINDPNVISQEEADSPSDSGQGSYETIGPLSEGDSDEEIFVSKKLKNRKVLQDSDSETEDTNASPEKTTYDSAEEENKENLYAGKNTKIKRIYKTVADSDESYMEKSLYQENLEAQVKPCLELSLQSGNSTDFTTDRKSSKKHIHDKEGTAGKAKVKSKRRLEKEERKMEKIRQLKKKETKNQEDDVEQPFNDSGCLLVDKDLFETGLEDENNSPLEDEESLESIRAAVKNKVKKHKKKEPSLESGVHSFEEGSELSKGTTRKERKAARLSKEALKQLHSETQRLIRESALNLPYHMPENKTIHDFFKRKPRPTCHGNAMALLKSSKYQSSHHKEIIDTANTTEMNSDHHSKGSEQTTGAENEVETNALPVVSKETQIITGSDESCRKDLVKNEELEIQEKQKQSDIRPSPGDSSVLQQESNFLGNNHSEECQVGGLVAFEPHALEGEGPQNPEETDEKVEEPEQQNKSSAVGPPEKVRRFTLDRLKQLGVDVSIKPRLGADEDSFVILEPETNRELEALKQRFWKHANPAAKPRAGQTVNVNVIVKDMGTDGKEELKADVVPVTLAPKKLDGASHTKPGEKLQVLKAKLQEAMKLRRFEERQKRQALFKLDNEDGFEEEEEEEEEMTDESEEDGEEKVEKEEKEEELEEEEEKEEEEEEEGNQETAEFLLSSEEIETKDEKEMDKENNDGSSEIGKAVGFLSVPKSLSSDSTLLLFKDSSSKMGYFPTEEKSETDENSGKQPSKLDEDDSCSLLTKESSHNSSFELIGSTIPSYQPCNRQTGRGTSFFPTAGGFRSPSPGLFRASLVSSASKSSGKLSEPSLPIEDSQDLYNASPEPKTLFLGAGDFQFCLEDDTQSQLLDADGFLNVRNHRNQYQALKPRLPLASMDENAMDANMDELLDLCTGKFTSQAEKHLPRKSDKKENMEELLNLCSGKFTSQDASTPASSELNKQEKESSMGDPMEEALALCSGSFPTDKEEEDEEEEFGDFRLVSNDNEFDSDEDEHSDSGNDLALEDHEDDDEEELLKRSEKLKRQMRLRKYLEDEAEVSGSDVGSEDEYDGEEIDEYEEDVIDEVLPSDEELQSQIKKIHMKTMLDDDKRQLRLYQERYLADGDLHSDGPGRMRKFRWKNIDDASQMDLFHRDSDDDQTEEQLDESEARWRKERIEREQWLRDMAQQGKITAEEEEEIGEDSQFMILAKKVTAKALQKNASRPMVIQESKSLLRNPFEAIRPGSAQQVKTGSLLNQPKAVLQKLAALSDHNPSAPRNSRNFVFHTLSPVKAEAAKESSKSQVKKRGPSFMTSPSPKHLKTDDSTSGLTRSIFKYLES
UniProt P23025: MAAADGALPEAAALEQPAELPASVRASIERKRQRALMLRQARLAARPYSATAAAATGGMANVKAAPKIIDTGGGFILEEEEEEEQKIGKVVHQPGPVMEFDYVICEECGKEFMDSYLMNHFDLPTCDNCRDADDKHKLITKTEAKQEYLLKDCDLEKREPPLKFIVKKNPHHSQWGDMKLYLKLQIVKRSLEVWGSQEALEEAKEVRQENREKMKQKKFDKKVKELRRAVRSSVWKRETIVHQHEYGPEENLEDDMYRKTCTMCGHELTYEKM
UniProt O14757: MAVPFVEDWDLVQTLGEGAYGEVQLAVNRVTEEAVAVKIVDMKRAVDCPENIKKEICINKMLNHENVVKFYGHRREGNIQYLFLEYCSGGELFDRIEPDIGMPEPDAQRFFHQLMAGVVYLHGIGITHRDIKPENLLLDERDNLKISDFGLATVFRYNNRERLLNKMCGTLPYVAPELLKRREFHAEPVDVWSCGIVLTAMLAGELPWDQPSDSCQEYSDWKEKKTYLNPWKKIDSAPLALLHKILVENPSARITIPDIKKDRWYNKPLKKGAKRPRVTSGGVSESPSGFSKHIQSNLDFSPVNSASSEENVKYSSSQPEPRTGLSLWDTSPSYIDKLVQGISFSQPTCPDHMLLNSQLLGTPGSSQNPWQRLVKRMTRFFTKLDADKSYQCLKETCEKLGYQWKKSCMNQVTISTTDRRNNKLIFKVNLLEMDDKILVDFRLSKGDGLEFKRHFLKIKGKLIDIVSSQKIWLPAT

How the values were obtained:
Experiment in all cases: pull-down
[1] = tested on: 9-1-1 complex (FLAG-Rad9-Hus1-Rad1); settings: 10 mM Tris pH 7.4, 50 mM NaCl (oligo DNA) or 100 mM NaCl (plasmid; 200/300 mM for TopBP1 salt series), 10 ug/ml BSA, 10% glycerol, 0.01% NP-40, room temperature, 30 min, recombinant protein, protein details: FLAG on Rad9
[2] = molecular target: T1, FLAG-ATRIP (UniProt Q8WXE1); settings: without RPA, 10 mM Tris pH 7.4, 50 mM NaCl (oligo DNA) or 100 mM NaCl (plasmid; 200/300 mM for TopBP1 salt series), 10 ug/ml BSA, 10% glycerol, 0.01% NP-40, room temperature, 30 min, recombinant protein, protein details: FLAG
T1 sequence (looked up, limits assumed): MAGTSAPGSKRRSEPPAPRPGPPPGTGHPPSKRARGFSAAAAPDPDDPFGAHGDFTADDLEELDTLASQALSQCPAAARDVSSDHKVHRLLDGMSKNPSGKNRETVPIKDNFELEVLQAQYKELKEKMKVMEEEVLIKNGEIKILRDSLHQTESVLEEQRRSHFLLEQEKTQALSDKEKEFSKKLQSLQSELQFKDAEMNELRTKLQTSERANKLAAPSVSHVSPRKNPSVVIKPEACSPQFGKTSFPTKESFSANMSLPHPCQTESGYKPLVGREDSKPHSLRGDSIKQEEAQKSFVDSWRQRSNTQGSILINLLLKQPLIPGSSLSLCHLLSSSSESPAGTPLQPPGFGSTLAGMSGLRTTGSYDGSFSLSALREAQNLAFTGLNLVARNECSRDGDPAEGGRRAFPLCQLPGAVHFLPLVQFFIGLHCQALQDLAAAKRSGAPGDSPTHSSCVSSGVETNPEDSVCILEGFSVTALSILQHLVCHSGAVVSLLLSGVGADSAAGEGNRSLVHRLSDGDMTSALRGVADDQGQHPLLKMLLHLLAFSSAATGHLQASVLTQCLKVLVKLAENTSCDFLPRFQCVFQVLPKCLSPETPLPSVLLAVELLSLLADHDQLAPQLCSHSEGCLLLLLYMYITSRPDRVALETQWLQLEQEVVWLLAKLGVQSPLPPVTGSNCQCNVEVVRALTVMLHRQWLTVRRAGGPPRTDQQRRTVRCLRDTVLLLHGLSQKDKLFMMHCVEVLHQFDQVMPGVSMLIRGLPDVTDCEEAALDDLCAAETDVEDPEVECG

[3] = molecular target: FLAG-Claspin (UniProt Q9HAW4); settings: 10 mM Tris pH 7.4, 50 mM NaCl (oligo DNA) or 100 mM NaCl (plasmid; 200/300 mM for TopBP1 salt series), 10 ug/ml BSA, 10% glycerol, 0.01% NP-40, room temperature, 30 min, recombinant protein, protein details: FLAG
[4] = molecular target: T2, FLAG-Timeless (UniProt Q9UNS1); settings: 10 mM Tris pH 7.4, 50 mM NaCl (oligo DNA) or 100 mM NaCl (plasmid; 200/300 mM for TopBP1 salt series), 10 ug/ml BSA, 10% glycerol, 0.01% NP-40, room temperature, 30 min, recombinant protein, protein details: FLAG
T2 sequence (looked up, limits assumed): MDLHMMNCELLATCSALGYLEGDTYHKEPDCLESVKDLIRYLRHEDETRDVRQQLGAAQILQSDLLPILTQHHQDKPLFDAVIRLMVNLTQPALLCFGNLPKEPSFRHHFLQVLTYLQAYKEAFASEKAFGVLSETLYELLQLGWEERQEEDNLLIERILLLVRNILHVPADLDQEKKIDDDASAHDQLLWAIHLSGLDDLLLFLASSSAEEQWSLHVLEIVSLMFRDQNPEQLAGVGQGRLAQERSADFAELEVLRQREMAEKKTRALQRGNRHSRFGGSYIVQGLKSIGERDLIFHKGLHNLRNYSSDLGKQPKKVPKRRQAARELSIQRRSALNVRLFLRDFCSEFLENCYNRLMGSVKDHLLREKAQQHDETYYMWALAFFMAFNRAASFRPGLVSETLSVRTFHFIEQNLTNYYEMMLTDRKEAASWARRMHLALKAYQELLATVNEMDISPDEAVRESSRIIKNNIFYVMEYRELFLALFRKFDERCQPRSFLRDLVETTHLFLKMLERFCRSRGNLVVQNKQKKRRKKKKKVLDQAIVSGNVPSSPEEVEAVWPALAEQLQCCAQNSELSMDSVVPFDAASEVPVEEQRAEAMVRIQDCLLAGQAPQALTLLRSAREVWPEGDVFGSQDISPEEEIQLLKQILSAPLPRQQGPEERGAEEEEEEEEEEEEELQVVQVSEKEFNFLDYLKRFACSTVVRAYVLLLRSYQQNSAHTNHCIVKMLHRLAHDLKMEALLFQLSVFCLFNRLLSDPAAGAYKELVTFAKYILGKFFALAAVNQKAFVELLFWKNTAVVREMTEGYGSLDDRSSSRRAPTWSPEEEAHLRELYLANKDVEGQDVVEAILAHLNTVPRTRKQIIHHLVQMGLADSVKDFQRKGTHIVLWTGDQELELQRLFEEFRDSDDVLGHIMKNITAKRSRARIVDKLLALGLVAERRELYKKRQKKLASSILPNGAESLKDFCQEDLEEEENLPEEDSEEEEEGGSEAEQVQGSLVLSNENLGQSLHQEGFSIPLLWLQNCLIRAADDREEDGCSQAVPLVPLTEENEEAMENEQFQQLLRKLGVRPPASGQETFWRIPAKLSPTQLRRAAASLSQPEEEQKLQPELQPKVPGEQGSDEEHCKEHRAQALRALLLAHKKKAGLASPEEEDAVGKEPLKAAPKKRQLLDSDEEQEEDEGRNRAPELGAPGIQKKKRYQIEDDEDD

[5] = tested on: FLAG-Timeless + Tipin-His; settings: 10 mM Tris pH 7.4, 50 mM NaCl (oligo DNA) or 100 mM NaCl (plasmid; 200/300 mM for TopBP1 salt series), 10 ug/ml BSA, 10% glycerol, 0.01% NP-40, room temperature, 30 min, recombinant protein, protein details: FLAG,His
[6] = molecular target: MBP-XPA (UniProt P23025); settings: 10 mM Tris pH 7.4, 50 mM NaCl (oligo DNA) or 100 mM NaCl (plasmid; 200/300 mM for TopBP1 salt series), 10 ug/ml BSA, 10% glycerol, 0.01% NP-40, room temperature, 30 min, recombinant protein, protein details: MBP
[7] = molecular target: T3, Tipin-His (UniProt Q9BVW5); settings: >10-fold less than fork at highest protein, 10 mM Tris pH 7.4, 50 mM NaCl (oligo DNA) or 100 mM NaCl (plasmid; 200/300 mM for TopBP1 salt series), 10 ug/ml BSA, 10% glycerol, 0.01% NP-40, room temperature, 30 min, recombinant protein, protein details: His
T3 sequence (looked up, limits assumed): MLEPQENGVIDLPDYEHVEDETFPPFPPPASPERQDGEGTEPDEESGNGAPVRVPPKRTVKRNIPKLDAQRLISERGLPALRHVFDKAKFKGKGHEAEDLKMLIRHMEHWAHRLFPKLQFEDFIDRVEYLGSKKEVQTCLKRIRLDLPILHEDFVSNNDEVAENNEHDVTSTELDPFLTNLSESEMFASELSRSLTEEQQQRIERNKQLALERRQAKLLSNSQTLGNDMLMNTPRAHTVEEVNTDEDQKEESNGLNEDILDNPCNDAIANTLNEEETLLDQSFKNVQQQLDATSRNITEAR

[8] = molecular target: T4, FAAP24-His (UniProt Q9BTP7); settings: 10 mM Tris pH 7.4, 50 mM NaCl (oligo DNA) or 100 mM NaCl (plasmid; 200/300 mM for TopBP1 salt series), 10 ug/ml BSA, 10% glycerol, 0.01% NP-40, room temperature, 30 min; recombinant protein; protein details: His (pET21b); label: 5'-biotin on Oligo1
T4 sequence (looked up, limits assumed): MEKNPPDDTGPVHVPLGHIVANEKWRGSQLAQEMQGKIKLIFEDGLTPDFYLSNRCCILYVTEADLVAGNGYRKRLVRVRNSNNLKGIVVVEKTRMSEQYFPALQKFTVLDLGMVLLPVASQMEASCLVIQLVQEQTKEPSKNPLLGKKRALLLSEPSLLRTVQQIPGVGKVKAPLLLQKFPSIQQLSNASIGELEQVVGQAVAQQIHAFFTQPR

[9] = molecular target: His-Chk1 (UniProt O14757); settings: 10 mM Tris pH 7.4, 50 mM NaCl (oligo DNA) or 100 mM NaCl (plasmid; 200/300 mM for TopBP1 salt series), 10 ug/ml BSA, 10% glycerol, 0.01% NP-40, room temperature, 30 min; recombinant protein; protein details: His; label: 5'-biotin on Oligo1
[10] = tested on: RPA (heterotrimer); settings: up to 10-fold less than ssDNA and fork; 10 mM Tris pH 7.4, 50 mM NaCl (oligo DNA) or 100 mM NaCl (plasmid; 200/300 mM for TopBP1 salt series), 10 ug/ml BSA, 10% glycerol, 0.01% NP-40, room temperature, 30 min; recombinant protein; label: 5'-biotin on Oligo1
[11] = label: 5'-biotin, single-stranded DNA

Measured: binding result

GACGCTGCCGAATTCTGGCTTGCTAGGACATCTTTGCCCACGTTGACCCG [ssDNA 50-mer (Oligo1)]
binds more weakly: [1]; [11] | [2]; [11] | [3]; [11] | [4]; [11] | [5]; [11] | [6]; [11] | [7]; [11]

GACGCTGCCGAATTCTGGCTTGCTAGGACATCTTTGCCCACGTTGACCCG (double strand) [dsDNA 50-mer (Oligo1/Oligo3)]
binds more weakly: [1]; label: 5'-biotin on Oligo1 | [8] | [2]; label: 5'-biotin on Oligo1 | [3]; label: 5'-biotin on Oligo1 | [4]; label: 5'-biotin on Oligo1 | [5]; label: 5'-biotin on Oligo1 | [9] | [6]; label: 5'-biotin on Oligo1 | [10] | [7]; label: 5'-biotin on Oligo1

For at least one entry, the source does not settle the construct or the ends of the probe. The comparison behind a weaker result is the experiment's own reference, which may not be listed here. For some assays here: At least one verdict was read from the data and is not stated in words by the source. For some assays here: Protein sequences can lack the tags named with them.
